Results taken from the supplement of paper PMC8426693.
The other results are listed elsewhere or left out.

Experiments:
Assay in all cases: NMR binding call after quantification (hit when 2 of 3 NMR criteria are met) (binary (1 = binding, 0 = not binding)); higher = binding
Settings in all cases: RNA concentration 10 µM; fragment concentration 200 µM; 293 K
SARS-CoV-2 5_SL7 RNA = system: SARS-CoV-2 5_SL7 RNA
SARS-CoV-2 5_SL8 RNA = system: SARS-CoV-2 5_SL8 RNA
[1] = system: SARS-CoV-2 attenuator hairpin (att HP) RNA
[2] = system: SARS-CoV-2 frameshift pseudoknot (PK) RNA

Measured: NMR binding call

CC(C)c1nnc(NCC(C)(C)C)s1
0: all assays above

CC1CCOC1C(=O)Nc1cnns1 (stereo not given)
0: all assays above

CC(C(N)=O)N1CCN(S(C)(=O)=O)CC1 (stereo not given)
0: all assays above

CNC(=O)CCC1CCCCC1
0: all assays above

O=C(c1c(F)cccc1F)N1CCCCCC1
0: all assays above

Cc1nccn1CC(C)O (stereo not given)
0: all assays above

CCc1nc(C2CCCN2)no1 (stereo not given)
0: all assays above

Oc1ccc(CNC2CCCCC2)cc1
0: all assays above

CC(=O)Nc1cc(C(=O)O)ccc1F
0: all assays above

CCNc1ncccc1C
0: all assays above

OCc1cn(-c2ccc(Cl)c(Cl)c2)nn1
1: all assays above

CC(=O)Nc1ccc(C)c2c1CCCN2
0: all assays above

CCCn1c(NC(=O)CC)nc2ccccc21
0: all assays above

CNCc1ccc(C(F)(F)F)cc1
0: all assays above

CCNCc1cn(C)nn1
0: all assays above

Cc1csc(NC(=O)C2CCOCC2)n1
0: all assays above

CN1CCN(C(=O)C2CCCO2)CC1 (stereo not given)
0: all assays above

O=C(NCCc1ccc(F)cc1)c1ccco1
0: all assays above

Cc1nn(Cc2c(C)noc2C)c(=O)s1
0: all assays above

Cc1cccc(NC(=O)Nc2nc(C)cs2)c1
0: all assays above

CC(C)(O)CNC1CCOCC1
0: all assays above

Oc1ccccc1-c1nc(-c2ccccc2)no1
0: all assays above

CC(O)CNC(=O)Nc1ccccc1 (stereo not given)
0: all assays above

NC(=O)C1CCCn2ccnc21 (stereo not given)
0: all assays above

CN(CC(=O)O)C(=O)c1ccccn1
0: all assays above

Oc1ccc(CN2CCOCC2)c2cccnc12
0: all assays above

CNC(C)c1sc(C)nc1C (stereo not given)
0: all assays above

CN(C)Cc1ccc(C(=O)O)o1.Cl
0: all assays above

CN1CCN(C(=O)c2ccc(F)c(F)c2)CC1
0: all assays above

CN(C)C(=O)Nc1ccc(S(N)(=O)=O)cc1
0: all assays above

CC(C)N(C)S(=O)(=O)N1CCNC(=O)C1
0: all assays above

O=C(Nc1ccc(Cl)cc1)Nn1cnnc1
0: all assays above

COC(=O)c1ccncc1
0: all assays above

Cc1ccc(NC(=O)c2ccco2)cc1O
0: all assays above

CC1CN(S(C)(=O)=O)CCC1N (stereo not given)
0: all assays above

O=C(CCCc1ccccc1)N1CCOCC1
0: all assays above

Fc1cccc(CN2CCOCC2)c1
0: all assays above

CC(=O)NCC1CNCCO1 (stereo not given)
0: all assays above

CCc1nnc(NC(=O)CN(C)C)s1
0: all assays above

Cc1noc(C)c1CC(C)C(=O)N(C)C (stereo not given)
0: all assays above

Nc1ccccc1N1CCOCC1
0: all assays above

COc1cc(CN)cc(OC)c1OC.Cl
0: all assays above

CNC(=O)c1ccc(CS(C)(=O)=O)cc1
0: all assays above

CC1CN(C(=O)c2cnsn2)C(C)CO1 (stereo not given)
0: all assays above

CCc1csc(-c2c[nH]cn2)n1
0: all assays above

Cc1ccccc1OCC(=O)N(C)C
0: all assays above

NC(=O)c1ccccc1NC(=O)c1ccncc1
0: all assays above

CCN(C)C(=O)c1cccc(N)c1
1: SARS-CoV-2 5_SL8 RNA
0: all other assays above

Arranged by SMILES length (high to low): some entries from above.
CC1CN(S(C)(=O)=O)CCC1N (stereo not given)
0: all assays above

CC(O)CNC(=O)Nc1ccccc1 (stereo not given)
0: all assays above

Fc1cccc(CN2CCOCC2)c1
0: all assays above

CC(C)(O)CNC1CCOCC1
0: all assays above

(next part)

Fc1ccc(CNCc2ccccc2)cc1
0: all assays above

CC(C)(CO)NC(=O)c1cccc(Cl)c1
0: all assays above

Cl.Cn1cc(C(N)=O)c(C2CCCNC2)n1 (stereo not given)
0: all assays above

COCC(=O)Nc1ccccc1
0: all assays above

CCOC(=O)c1sc(-c2cnccn2)nc1C
0: all assays above

CC(=O)Nc1cnccc1C
0: all assays above

CCOC(=O)c1cn[nH]c1
0: all assays above

c1csc(CNCc2ccncc2)c1
0: all assays above

COc1ccc(CCC2(C)NC(=O)NC2=O)cc1 (stereo not given)
0: all assays above

CN(Cc1cccc(F)c1)S(N)(=O)=O
0: all assays above

CN(CCc1ccccn1)C(=O)c1ccccc1
0: all assays above

COc1ccccc1N1CCN(CC#N)CC1
0: all assays above

Cc1nc(CN2CCC(CN)CC2)cs1
0: all assays above

N#CCC(=O)N1CCC(C(N)=O)CC1
0: all assays above

Cc1ccc(CN(C)Cc2ccccc2)o1
0: all assays above

CCNC1CCN(c2ccncc2)CC1
0: SARS-CoV-2 5_SL8 RNA | [1]
1: SARS-CoV-2 5_SL7 RNA | [2]

CCCn1nccc1-c1ccncc1
0: all assays above

CC(C)(C)N1CC(O)C1
0: all assays above

O=C(Nc1nnc(-c2ccco2)s1)C1CC1
0: all assays above

Cc1cnc(N2CCNCC2)s1.Cl.Cl
0: all assays above

O=C(Cc1ccc(Cl)cc1)Nc1ncccn1
0: all assays above

COc1cccc2c1CCCC(=O)N2
0: all assays above

CNC(C)c1cnn(C)c1 (stereo not given)
0: all assays above

O=C(Nc1ccc(-n2cnnn2)cc1)C1CCC1
0: all assays above

CCCc1cc(=O)oc2cc(OC(C)=O)ccc12
0: all assays above

NC(=O)C1CCN(C(=O)C2CCCCC2)CC1
0: all assays above

CC(N)c1ccc(NC(=O)C2CC2)cc1.Cl (stereo not given)
0: all assays above

Cc1sc2ncnc(N(C)C)c2c1C
0: all assays above

CC(N)c1ccc(N2CCOCC2)cc1 (stereo not given)
0: all assays above

Cc1cc(NC(=O)CSc2ccccc2)no1
0: all assays above

CC(O)CNC1CCCCC1 (stereo not given)
0: all assays above

CC(C)CC(=O)NCc1ccc2c(c1)OCO2
0: all assays above

CC(=O)NCC1(c2ccccc2)CCOCC1
0: all assays above

CCOc1ccc(NC(=O)NC(C)(C)C)cc1
0: all assays above

CNS(=O)(=O)Cc1cc(C)on1
0: all assays above

CN(C)CCN1C(=O)c2ccccc2C1=O
0: all assays above

CCc1cc(=O)n2nc(NC)sc2n1
0: all assays above

O=C(O)c1cccc(NC(=O)c2ccno2)c1
0: all assays above

CC(Oc1ccc(Cl)cc1)C(N)=O (stereo not given)
0: all assays above

Reprinted at random: two compounds from above, in no set order.
CN(C)CCN1C(=O)c2ccccc2C1=O
0: all assays above

CC(Oc1ccc(Cl)cc1)C(N)=O (stereo not given)
0: all assays above

Going on with the list:

CC(O)COc1cccc(F)c1 (stereo not given)
0: all assays above

CNS(=O)(=O)c1cccc(C)c1F
0: all assays above

CCOC(=O)N1CCOCC1
0: all assays above

Cl.Cl.Cl.FC(F)n1ccnc1CN1CCNCC1
0: all assays above

CNc1ncc(C(F)(F)F)cc1Cl
0: all assays above

Oc1ncc(NC2CCCCC2)c(O)n1
0: all assays above

CC(=O)N1CC(C(=O)O)C1
0: all assays above

CCC(=O)Nc1ccc(C)cc1O
0: all assays above
